Laboratory results: publication PMC11109203 (Nature Communications, 2024)

Biological target: T1, Sad1_(1-169) (S. pombe, UniProt Q09825 1-169)
T1 construct: Cleavage is told in general for proteins not needed with their tag; used in ITC, SEC and MST; also called Sad1NTD; source: E. coli Rosetta, purified (glutathione Sepharose 4B, 3C digestion on beads, Superdex); not shown: GST, N-terminal, cleaved
T1 sequence (looked up): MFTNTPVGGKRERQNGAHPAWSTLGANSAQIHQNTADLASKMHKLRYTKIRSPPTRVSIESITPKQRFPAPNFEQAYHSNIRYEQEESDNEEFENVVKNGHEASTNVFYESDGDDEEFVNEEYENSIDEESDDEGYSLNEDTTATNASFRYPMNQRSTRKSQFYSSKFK
Assay: ITC; MicroCal ITC200, 20 °C; 25 mM Tris-HCl pH 8.0, 400 mM NaCl, 2 mM DTT; Sad1 (500 μM) titrated into H2AB (50 μM)
Conditions: both partners purified

Kd: 7.5 µM
B1: S. pombe H2AZB fusion protein (H2B_(32-126)-H2A.Z_(22-115)) (other, UniProt P04913 32-126, looked up)
chain: NRKETYSSYIYKVLKQVHPDTGISNQAMRILNSFVNDIFERIATEASKLAAYNKKSTISSREIQTAVRLILPGELAKHAVTEGTKSVTKYSSSAQGQMSHSARAGLQFPVGRVRRFLKAKTQNNMRVGAKSAVYSAAVLEYLTAEVLELAGNAAKDLKVKRITPRHLQLAIRGDEELDTLIRATIAGGG
notes: histone variant H2A.Z, S. pombe, residues 22-115; No linker between the two parts is told; also called H2A.Z-H2B fusion protein; source: E. coli Rosetta, purified (3C digestion, Superdex); not shown: 6*His, N-terminal, cleaved
